Consider one molecule from PMC9598311, “Identification of a Small Molecule That Inhibits the Interaction of LPS Transporters LptA and LptC” (Antibiotics, 2022).

Results are given in words; binding and its absence hold for the method and conditions named. Some entries that bind do so weakly or less than the wild type. Where a sequence is shown, tags or fusion partners need not be part of it.

In this experiment the target is T1, LptC fused to the Gal4 DNA-binding domain (pBD-LptC) (Escherichia coli) (UniProt P0ADV9).
T1 sequence: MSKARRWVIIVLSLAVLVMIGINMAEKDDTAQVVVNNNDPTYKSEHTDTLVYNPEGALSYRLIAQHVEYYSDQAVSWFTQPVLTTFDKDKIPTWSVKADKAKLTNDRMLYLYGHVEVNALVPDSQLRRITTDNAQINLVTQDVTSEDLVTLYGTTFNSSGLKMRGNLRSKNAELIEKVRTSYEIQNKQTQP
Description: two-hybrid; yeast AH109, Gal4 AD and BD fusions; growth on SD/-Leu-Trp-Ade-His medium and β-gal activity; 30 °C.

B1: LptA fused to the Gal4 activation domain (pAD-LptA) (protein, UniProt P0ADV1 1-185)
chain: MKFKTNKLSLNLVLASSLLAASIPAFAVTGDTDQPIHIESDQQSLDMQGNVVTFTGNVIVTQGTIKINADKVVVTRPGGEQGKEVIDGYGKPATFYQMQDNGKPVEGHASQMHYELAKDFVVLTGNAYLQQVDSNIKGDKITYLVKEQKMQAFSDKGKRVTTVLVPSQLQDKNNKGQTPAQKKGN
Consider B1, for which the binding result is “binds”.
